Results deposited as PubChem BioAssay AID1117269 (University of Michigan, 2014).
Purpose: 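Which kinase knockdowns increase BTR reporter light after TGF-beta stimulation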 (primary screen). Cells: human A549 lung cancer and 1833 breast cancer (MDA-MB-231-derived) cell lines carrying a stable BTR luciferase reporter. Knock-down reagent: siRNA pool against human genes. Timing: 72 h after transfection, then 1 h TGF-beta before the read. Conditions: TGF-beta 10 ng/mL added one hour before luciferin and read-out. Detection: 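BTR reporter bioluminescence as fold change relative to non-targeting siRNA, averaging triplicates per line; knockdown for 72 h, then TGF-beta at 10 ng/mL 1 h prior to reading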. Scale: fold over scrambled siRNA, A549 and fold over scrambled siRNA, 1833: higher = more reporter light, weaker TGF-beta receptor signalling. Rule for the call: 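Active if a hit in A549 or 1833; a line's hit exceeds an upper quartile-based cutoff on mean log fold values, applied per plate and across the whole screen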. Meaning of the calls: active = hit in at least one line; inactive = hit in neither line.
The whole screen tested 714 reagents; shown is an unselected part. 49 of all reagents (6.9%) were called active. 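Active means a hit in at least one line; per-line hit columns show which; some siRNA pools appear more than once.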 No sequences are given here. Not stated in the record: the amount of reagent.

| Gene | fold over scrambled siRNA, A549 | fold over scrambled siRNA, 1833 | hit in A549 | hit in 1833 | activity call |
| --- | --- | --- | --- | --- | --- |
| AK7 | 3.38 | 5.27 | not a hit in A549 | not a hit in 1833 | inactive |
| PIK3CD | 6.64 | 1.85 | hit in A549 | not a hit in 1833 | active |
| TRPM7 | 3.76 | 3.24 | not a hit in A549 | not a hit in 1833 | inactive |
| TYRO3 | 2.07 | 2.86 | not a hit in A549 | not a hit in 1833 | inactive |
| CSNK2A2 | 0.525 | 3.3 | not a hit in A549 | not a hit in 1833 | inactive |
| PIP4K2C | 1.49 | 3 | not a hit in A549 | not a hit in 1833 | inactive |
| SRC | 4.33 | 1.93 | not a hit in A549 | not a hit in 1833 | inactive |
| BRD3 | 1.19 | 3.74 | not a hit in A549 | not a hit in 1833 | inactive |
| MLKL | 4.1 | 6.51 | not a hit in A549 | not a hit in 1833 | inactive |
| MERTK | 0.389 | 2.27 | not a hit in A549 | not a hit in 1833 | inactive |
| CDK1 | 1.43 | 4.44 | not a hit in A549 | not a hit in 1833 | inactive |
| PIK3CG | 3.27 | 1.47 | not a hit in A549 | not a hit in 1833 | inactive |
| LRRK1 | 2.62 | 4.16 | not a hit in A549 | not a hit in 1833 | inactive |
| NUP62 | 0.816 | 5.07 | not a hit in A549 | not a hit in 1833 | inactive |
| IRAK4 | 2.91 | 2.27 | not a hit in A549 | not a hit in 1833 | inactive |
| PCK1 | 0.571 | 2.33 | not a hit in A549 | not a hit in 1833 | inactive |
| XYLB | 1.38 | 11 | not a hit in A549 | hit in 1833 | – |
| AURKB | 0.573 | 1.26 | not a hit in A549 | not a hit in 1833 | inactive |
| TWF1 | 3.01 | 3.27 | not a hit in A549 | not a hit in 1833 | inactive |
| STK39 | 2.99 | 3.93 | not a hit in A549 | not a hit in 1833 | inactive |
| RAF1 | 3.19 | 4.35 | not a hit in A549 | not a hit in 1833 | inactive |
| RPS6KB2 | 1.22 | 1.13 | not a hit in A549 | not a hit in 1833 | inactive |
| CAMK2B | 3.81 | 6.62 | not a hit in A549 | not a hit in 1833 | inactive |
